Source: PubChem BioAssay AID504791 (Drosophila RNAi Screening Center, 2011)

- Purpose: 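Genes of the fly required for silencing by miRNA, siRNA or endo-siRNA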 (primary screen)
- Cell system: Drosophila S2-derived reporter cells
- Reagents: long dsRNA against Drosophila genes, about 150-250 ng dsRNA per well (siRNA assay); about 80-120 ng (miRNA assay)
- Time to read-out: about 5 days (siRNA assay); about 4 days (miRNA assay)
- Conditions: copper sulfate induction of reporters: 25 µM (siRNA assay); 200 mM stated (miRNA assay), 1-2 days before reading
- Detection: 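Dual luciferase assay: Renilla to firefly signal ratio in each well, scaled to the mean ratio of its plate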
- Units: stable assay Renilla, run 1 in luminescence; stable assay firefly, run 1 in luminescence
- Rule for the call: 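a well was a first-pass pick when its plate-scaled ratio rose above 1.5 (siRNA assay) or 1.6 (miRNA assay), or dropped below 0.6; a gene counted only if two separate dsRNAs agreed on retest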
The deposit covers about 23,000 reagents; shown is an unselected part of those with a known target gene and a result. In the full data, 199 (0.86%) are marked active. 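Plate-scaled ratios behind the calls are not deposited; printed light signals are raw; many rows marked increased or decreased are still called inactive.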 A number with no mark means an inactive call. No sequences are given here. The record does not give: the direction of the score.

Mlh1 [DRSC07473]
- stable assay Renilla, run 1: 8498
- stable assay firefly, run 1: 4.34e5

ATP8B [DRSC14961]
- stable assay Renilla, run 1: 6270
- stable assay firefly, run 1: 4.13e5

eIF3l [DRSC10530]
- stable assay Renilla, run 1: 6311
- stable assay firefly, run 1: 3.43e5

Pten [DRSC03402]
- stable assay Renilla, run 1: 8239
- stable assay firefly, run 1: 4.83e5

CG3078 [DRSC18531]
- stable assay Renilla, run 1: 5952
- stable assay firefly, run 1: 2.51e5

CG31820 [DRSC21318]
- stable assay Renilla, run 1: 9059
- stable assay firefly, run 1: 5.79e5

CG13747 [DRSC06418]
- stable assay Renilla, run 1: 5762
- stable assay firefly, run 1: 3.93e5

CG33966 [DRSC08256]
- stable assay Renilla, run 1: 5952
- stable assay firefly, run 1: 3.72e5

Sara [DRSC04653]
- stable assay Renilla, run 1: 7026
- stable assay firefly, run 1: 3.53e5

Cfp1 [DRSC18128]
- stable assay Renilla, run 1: 7446
- stable assay firefly, run 1: 5.08e5

A portion from the list above, as a working copy:
ATP8B [DRSC14961]
- stable assay Renilla, run 1: 6270
- stable assay firefly, run 1: 4.13e5

eIF3l [DRSC10530]
- stable assay Renilla, run 1: 6311
- stable assay firefly, run 1: 3.43e5

Pten [DRSC03402]
- stable assay Renilla, run 1: 8239
- stable assay firefly, run 1: 4.83e5

CG3078 [DRSC18531]
- stable assay Renilla, run 1: 5952
- stable assay firefly, run 1: 2.51e5

Further entries follow.
DIP-gamma [DRSC14873]
- stable assay Renilla, run 1: 7695
- stable assay firefly, run 1: 6.13e5

cnk [DRSC07595]
- stable assay Renilla, run 1: 6143
- stable assay firefly, run 1: 3.22e5

ced-6 [DRSC07591]
- stable assay Renilla, run 1: 4367
- stable assay firefly, run 1: 5.15e5

Pgant7 [DRSC19991]
- stable assay Renilla, run 1: 7378
- stable assay firefly, run 1: 3.46e5

CG17032 [DRSC10241]
- stable assay Renilla, run 1: 6442
- stable assay firefly, run 1: 3.30e5

ND2 (retired record) [DRSC21274]
- stable assay Renilla, run 1: 3331
- stable assay firefly, run 1: 3.50e5

dikar [DRSC09699]
- stable assay Renilla, run 1: 7746
- stable assay firefly, run 1: 4.02e5

dikar [DRSC22261]
- stable assay Renilla, run 1: 8402
- stable assay firefly, run 1: 5.49e5

Muc18B [DRSC20064]
- stable assay Renilla, run 1: 5936
- stable assay firefly, run 1: 3.11e5

Muc18B [DRSC21644]
- stable assay Renilla, run 1: 8658
- stable assay firefly, run 1: 4.93e5

Acp53C14a [DRSC07224]
- stable assay Renilla, run 1: 6003
- stable assay firefly, run 1: 2.91e5

Rx [DRSC03837]
- stable assay Renilla, run 1: 5868
- stable assay firefly, run 1: 3.64e5

Rx [DRSC04652]
- stable assay Renilla, run 1: 7282
- stable assay firefly, run 1: 5.02e5

CG17239 [DRSC00492]
- stable assay Renilla, run 1: 7294
- stable assay firefly, run 1: 3.69e5

CG11370 [DRSC11653]
- stable assay Renilla, run 1: 8944
- stable assay firefly, run 1: 3.93e5

CG34297 [DRSC12410]
- stable assay Renilla, run 1: 6659
- stable assay firefly, run 1: 4.21e5

ast [DRSC00803]
- stable assay Renilla, run 1: 12678
- stable assay firefly, run 1: 1.41e5

BomBc1 [DRSC06501]
- stable assay Renilla, run 1: 6592
- stable assay firefly, run 1: 3.15e5
